# Primary screen of a compound library

Sequences of proteins named here, by UniProt entry; tags and fusion partners are left off.
UniProt E9BF75, entry or part of it: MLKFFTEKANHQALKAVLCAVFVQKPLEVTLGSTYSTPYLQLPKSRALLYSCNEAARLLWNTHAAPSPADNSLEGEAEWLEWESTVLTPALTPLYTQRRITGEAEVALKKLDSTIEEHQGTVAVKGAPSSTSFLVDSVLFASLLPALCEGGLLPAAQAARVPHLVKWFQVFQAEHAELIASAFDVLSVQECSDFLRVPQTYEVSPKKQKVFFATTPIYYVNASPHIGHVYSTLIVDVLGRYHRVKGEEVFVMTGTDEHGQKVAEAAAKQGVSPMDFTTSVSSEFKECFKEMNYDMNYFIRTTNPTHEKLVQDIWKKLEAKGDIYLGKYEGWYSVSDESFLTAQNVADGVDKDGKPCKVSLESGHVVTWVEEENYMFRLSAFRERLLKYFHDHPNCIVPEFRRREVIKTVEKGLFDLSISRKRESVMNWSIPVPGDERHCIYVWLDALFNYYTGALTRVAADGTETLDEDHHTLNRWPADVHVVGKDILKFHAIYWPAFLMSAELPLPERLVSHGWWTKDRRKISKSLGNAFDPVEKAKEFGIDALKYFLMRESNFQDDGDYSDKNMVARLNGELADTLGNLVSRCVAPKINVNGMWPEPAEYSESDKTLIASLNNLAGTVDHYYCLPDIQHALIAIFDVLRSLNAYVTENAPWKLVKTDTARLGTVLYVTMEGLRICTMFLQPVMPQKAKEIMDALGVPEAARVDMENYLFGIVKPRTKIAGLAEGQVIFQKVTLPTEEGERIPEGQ

LdMetRS: 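Primary screen of methionyl-tRNA synthetase; the read-out is not stated. Target: Methionyl-tRNA synthetase (putative), Leishmania donovani (UniProt E9BF75). The test concentration is not given. Values are per cent inhibition. Of about 68,000 compounds tested this way, about 24 (0.035%) reached 50% or more in at least one test.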
Mtb heat-shock: 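Assay on Mycobacterium tuberculosis, filed only as a heat shock assay from Cornell; the read-out is not stated. The concentration is filed as 10 mM, unlikely as a test dose, so the dose is not known. The record gives no direction; compounds that gave an IC50 in retests scored well above the rest, so higher reads as stronger inhibition. Of about 69,000 compounds tested this way, about 930 (1.4%) reached 50% or more in at least one test.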

Results are percentages, as filed. The record does not define 0% and 100%; most values in the screen are far below 50% and negative numbers occur (in some assays of this library far below -100). This is an unselected part of the compounds tested.

{"compound": "CCN1c2ccc(-c3cncn3CC(=O)NC(C)(C)C)cc2CC1C.Cl", "stereo": "stereo not drawn", "Mtb heat-shock": 85.85}
{"compound": "CN(CCn1cccn1)S(=O)(=O)c1cccc(F)c1C#N", "LdMetRS": 14.8, "Mtb heat-shock": -5.269}
{"compound": "CCOCCN(CCOCC)c1nc(C)nc2sccc12", "LdMetRS": -2.405, "Mtb heat-shock": -8.475}
{"compound": "CC(c1cccnc1)N(C)Cc1cc2cc3c(cc2[nH]c1=O)OCO3", "stereo": "stereo not drawn", "LdMetRS": 1.535, "Mtb heat-shock": 18.69}
{"compound": "O=C(O)C(F)(F)F.c1ccc(OC2COC3(CCN(Cc4ccccn4)CC3)C2)cc1", "stereo": "stereo not drawn", "Mtb heat-shock": -1.212}
{"compound": "CS(=O)(=O)N1CC(c2ccnc(Nc3ccccn3)n2)C1", "LdMetRS": 13.02, "Mtb heat-shock": 6.804}
{"compound": "N#Cc1ccc(N2CCC3(CCCN(c4ccccn4)C3)C2)nc1.O=C(O)C(F)(F)F", "stereo": "stereo not drawn", "Mtb heat-shock": 2.555}
{"compound": "CC1(C(=O)N2CCOCC2)CNCCO1.Cl", "stereo": "stereo not drawn", "Mtb heat-shock": -11.02}
{"compound": "Cc1ccc(S(=O)(=O)NC(=O)C2(c3ccccc3)CCC2)c(C)c1", "LdMetRS": 13.4, "Mtb heat-shock": -1.359}
{"compound": "O=C(NCc1ccccc1CN1CCOCC1)Nc1nncs1", "LdMetRS": -3.073, "Mtb heat-shock": -24.51}
{"compound": "CC(C)CN1CCC2(CC1)CC(NS(C)(=O)=O)c1ccccc1O2", "stereo": "stereo not drawn", "LdMetRS": 19.29}
{"compound": "[H][C@@]12CCN[C@]1([H])CN(S(=O)(=O)c1ccc(C)cc1)C2", "Mtb heat-shock": -1.465}
{"compound": "CC(=O)N1CCc2cc(Cl)cc(Cl)c2C1", "LdMetRS": 10.08, "Mtb heat-shock": -10.28}
{"compound": "CC1CCCN(C(=O)Nc2cccc(CN3CCOC3=O)c2)C1", "stereo": "stereo not drawn", "LdMetRS": 6.516, "Mtb heat-shock": -17.08}
{"compound": "Cc1cc(NC(=O)NCC(C)O)n(C)n1", "stereo": "stereo not drawn", "LdMetRS": 8.163, "Mtb heat-shock": 1.185}
{"compound": "CCS(=O)(=O)N1CCC(Nc2c(F)cc(C#N)cc2F)CC1", "LdMetRS": 6.425, "Mtb heat-shock": 4.483}
{"compound": "OC[C@@H]1[C@@H](c2ccccc2)CN2CCN(c3ccccn3)C[C@H]12", "LdMetRS": -2.432}
{"compound": "O=C(O)C(F)(F)F.[H][C@]12CCN(C(=O)NCc3ccccc3)C[C@@]1([H])OCCN(C(C)C)C2", "Mtb heat-shock": 33.67}
{"compound": "Cc1cccc(C(=O)N2C[C@@H]3COC[C@@H](CC(=O)N4CCCC4)[C@@H]3C2)n1", "LdMetRS": 19.63}
{"compound": "CCCOCCCNc1nccc(-c2cn(C)nc2C)n1", "LdMetRS": 11.11, "Mtb heat-shock": 5.562}
{"compound": "O=C(O)C(F)(F)F.[H][C@]12CCC[C@@]1(COCC(=O)N(C)C)CN(C1CCCC1)C2", "Mtb heat-shock": 4.196}
{"compound": "COc1cccc(-n2cc(-c3ccnc(N[C@H](CO)C(C)C)n3)cn2)c1", "LdMetRS": 16.03, "Mtb heat-shock": -15.18}
{"compound": "O=C(NCCn1ccnc1)N1CCN(Cc2ccco2)CC1", "LdMetRS": 10.8, "Mtb heat-shock": 6.299}
{"compound": "O=C(c1ccsc1)N1CCc2nnc(COc3cncnc3)n2CC1", "LdMetRS": -3.833, "Mtb heat-shock": 12.69}
{"compound": "O=C(Nc1nccs1)NC1CCN(CC2CCCC2)CC1", "LdMetRS": 15.21, "Mtb heat-shock": 13.96}
{"compound": "Cc1nc2n(n1)CC(NCc1cnn(-c3ccccc3)n1)CC2", "stereo": "stereo not drawn", "LdMetRS": 18.7, "Mtb heat-shock": -1.368}
{"compound": "CC(C)NC(=O)N1CCC2(CC1)C(=O)NCCN2Cc1ccccc1.O=C(O)C(F)(F)F", "Mtb heat-shock": 10.65}
{"compound": "CCc1cc(=O)[nH]c(-n2nc(C3CC3)cc2NC(=O)C2CC2)n1", "LdMetRS": 10.06, "Mtb heat-shock": 103.7}
{"compound": "COc1cccc(SCC(=O)N2CCC(N3CCCC3=O)CC2)c1", "LdMetRS": 14.58, "Mtb heat-shock": 8.423}

Once more, the final 2:

| compound | LdMetRS | Mtb heat-shock |
|---|---|---|
| `CCc1cc(=O)[nH]c(-n2nc(C3CC3)cc2NC(=O)C2CC2)n1` | 10.06% | 103.7% |
| `COc1cccc(SCC(=O)N2CCC(N3CCCC3=O)CC2)c1` | 14.58% | 8.423% |

Source: ChEMBL document CHEMBL3988442, “University of Dundee, Small-Polar-MMV Screening Library” (2021).